The list shows a part of the results.

Protein sequences, listed by entry. Tags and fused reporters are not part of them.
UniProt Q0JBA9, entry or part of it: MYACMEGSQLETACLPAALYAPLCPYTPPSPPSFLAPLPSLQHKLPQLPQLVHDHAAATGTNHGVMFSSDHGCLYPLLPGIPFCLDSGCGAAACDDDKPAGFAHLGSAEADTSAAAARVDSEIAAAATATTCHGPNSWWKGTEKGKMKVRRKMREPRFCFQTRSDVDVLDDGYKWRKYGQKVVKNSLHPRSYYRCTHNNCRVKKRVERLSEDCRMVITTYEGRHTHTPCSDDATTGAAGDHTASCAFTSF

The text below walks through data of PMC7819943, “Rice protein-binding microarrays: a tool to detect cis-acting elements near promoter regions in rice”.

The target in this assay is OsWRKY34 (Oryza sativa, UniProt Q0JBA9 1-250). Briefly: protein-binding microarray (RPBM); PBS, 2% BSA, 51.3 ng/ul salmon testes DNA, 50 uM zinc acetate, 200 nM TF, 25 C, 1 h; high values mean tight binding. The conditions noted are these: protein: recombinant; tags: N-terminal polyhistidine and DsRed monomer fusion (pET32a); label: CyDye5-dUTP incorporated in the synthesized complementary strand; 3' TTTTT single-stranded linker to array surface; dsDNA, one strand shown. Put shortly: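 The binding signal for each feature is its fluorescence intensity in arbitrary units. An Axon 4000B scanner was used to read a custom Agilent array that had been made double-stranded with Cy5-dUTP primer extension, blocked with 2% BSA, incubated at 25 °C for 1 h with 200 nM protein in PBS, 2% BSA, salmon testes DNA and 50 µM zinc acetate, and washed. The protein was an N-terminal polyhistidine–DsRed transcription factor fusion from E. coli BL21-CodonPlus, purified on Ni–NTA.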
For “CGGAATAATATATTGCCTATTAATCTATATTGTCAATTTTCGGAGTCACCTAGTGCAG”, the binding signal was 8480 fluorescence intensity (a.u.).
“TTTTTGCAAGCTTTTCATCACATAGGCCACCACCCTCTTTCGGAGTCACCTAGTGCAG”: the binding signal was 8190 fluorescence intensity (a.u.).
As for “AAACTTATCAATCATGCGTTTTCTTGTTTTCGTGGATCATCGGAGTCACCTAGTGCAG”, the figure is 10600 fluorescence intensity (a.u.).
As for “CCCGTTCTAATTCAGTTTCTCCCTTTCTTACCGCATGTACCGGAGTCACCTAGTGCAG”, the figure is 8490 fluorescence intensity (a.u.).
With “GAGCCGTATATTTTCTGTCGACAAATATCCAATTATATTGCGGAGTCACCTAGTGCAG” the figure was 10900 fluorescence intensity (a.u.); with “CGTCGCGGCTATACGGCTATTATACCTACCAGCCACCACACGGAGTCACCTAGTGCAG”, 8930 fluorescence intensity (a.u.).
Consider “TCGTGAACCTTTTCGAGTGTAAACCACTCGGATTCTTTTTCGGAGTCACCTAGTGCAG”, for which the binding signal was 8580 fluorescence intensity (a.u.).
As for “GCGGCTTAGTAACGTTTGTAGGAAGTTTAATGGACTTTTACGGAGTCACCTAGTGCAG”, the figure is 8580 fluorescence intensity (a.u.); as for “GGAGAGTTTGACCCGTGCGCTTTCCTCCCGGCTGGCTCGCCGGAGTCACCTAGTGCAG”, 8160 fluorescence intensity (a.u.).
As for “GTCTGCGTCGTCAATGGCCACCTGTGTTCCTCTTGCTCTTCGGAGTCACCTAGTGCAG”, the figure is 9330 fluorescence intensity (a.u.).
As for “AACTTGTTTGCAATTTTTTTTCCTGCTCTATCAATATAAACGGAGTCACCTAGTGCAG”, the figure is 9370 fluorescence intensity (a.u.).
Take “TCAACCGTTTTCCCAAAGCTGACGCGATGCGGTACGACCTCGGAGTCACCTAGTGCAG”: the binding signal was 8510 fluorescence intensity (a.u.).
As for “CTCTCAAATGTCTTTGTTTCCCGCCATTTTTTTGGCCATCCGGAGTCACCTAGTGCAG”, the figure is 8430 fluorescence intensity (a.u.); as for “CCGTCTGCTTTTATTCGAAACCCCAACTTATCGTGTGTATCGGAGTCACCTAGTGCAG”, 9850 fluorescence intensity (a.u.).
For the sequence “GACCATGAACAGTGTTTGCCGAAATTTTTGACCGGAGCTCCGGAGTCACCTAGTGCAG”, the binding signal is 9510 fluorescence intensity (a.u.).
On to “CACCCGCTCTCCTCGCTGCGTCGCCGTCGCCTGCTCCTCTCGGAGTCACCTAGTGCAG”, for which the binding signal was 11000 fluorescence intensity (a.u.).
As for “CTACCGCTGCTGCTGCTGCTACTACTACTACTCTCTCTCTCGGAGTCACCTAGTGCAG”, the figure is 8640 fluorescence intensity (a.u.); as for “AATTGCTTTGTTAAACTGTACAGGTATGCTGCTGTATTTGCGGAGTCACCTAGTGCAG”, 8460 fluorescence intensity (a.u.).
With “ATCCAACACCGCCCATCAATTGATCACGCAAATACTAAACCGGAGTCACCTAGTGCAG” the figure was 12600 fluorescence intensity (a.u.); with “AGGGCTTAAGGAGGGCGATGTGGCTGGTGGTAGTTGTCGTCGGAGTCACCTAGTGCAG”, 8340 fluorescence intensity (a.u.).
With “ACGTCCGATAGTTTTTGCCACATTCGCTTGCTTCATGCTCCGGAGTCACCTAGTGCAG” the figure was 13400 fluorescence intensity (a.u.); with “ACGCACCTTCATCTTCGCTCTCGCTTTCCCGTGTAAGCCGCGGAGTCACCTAGTGCAG”, 8650 fluorescence intensity (a.u.); with “CCACGCAATCCCGCTTCCAAACCGCGAAGGCGTAAATCCTCGGAGTCACCTAGTGCAG”, 8130 fluorescence intensity (a.u.).
As for “AATTGCGAGGCACCTCTCTTGTTCATCTGCTCTGCTGGGGCGGAGTCACCTAGTGCAG”, the binding signal was 8540 fluorescence intensity (a.u.).
With “TTAATTTTTTTTCCTTATACATTTCCTTTCCTTTTTTTTACGGAGTCACCTAGTGCAG” the figure was 8270 fluorescence intensity (a.u.); with “ATGGCACGAACACATTTTTTGTTTTTATAAGCGGTACAATCGGAGTCACCTAGTGCAG”, 8540 fluorescence intensity (a.u.); with “TTAGGGGTAGGCTAGAGATTGATTGGGGCTTATATGATAACGGAGTCACCTAGTGCAG”, 19700 fluorescence intensity (a.u.).
On to “TTGAACTGGCTTTGGCCGTTATATAGGGGTTGGTCTTCCACGGAGTCACCTAGTGCAG”, for which the binding signal was 9020 fluorescence intensity (a.u.).
With “ACGGCCACCCGCATCAACTCTTCCACTCTCTCCATTCCTACGGAGTCACCTAGTGCAG” the figure was 8090 fluorescence intensity (a.u.).
For “CCTCTTCTGATGTGGTCACATTCTCGCGTGCTCATTTGCACGGAGTCACCTAGTGCAG”, the binding signal was 8470 fluorescence intensity (a.u.).
With “ATGTGCTGGCTTTATATTTGTAGCAAACCAAATACAATCTCGGAGTCACCTAGTGCAG” the figure was 8510 fluorescence intensity (a.u.); with “CTTTATGAGAACACACCTTCTAAGGTTCCAACCCATTTTACGGAGTCACCTAGTGCAG”, 8330 fluorescence intensity (a.u.); with “ATTTATATTTAATACTTGTGTGCGTGTGTATTCGATGTGACGGAGTCACCTAGTGCAG”, 8290 fluorescence intensity (a.u.).
Consider “TCCCCATGCCATGCAAAATAAATATCCATATTACCGTTTCCGGAGTCACCTAGTGCAG”, for which the binding signal is 8320 fluorescence intensity (a.u.).
Consider “TGTTTTCACTTTCCTCTTCAGTCTTCTTCCTTCTTTCGTTCGGAGTCACCTAGTGCAG”, for which the binding signal is 9140 fluorescence intensity (a.u.).
As for “GGATTTTGACTTTTTACTTGCACTGTTTGACTATTCGTCTCGGAGTCACCTAGTGCAG”, the figure is 18600 fluorescence intensity (a.u.); as for “CTACTGTCATGCTTCCTTGTCACATTACTACATCGTCGTTCGGAGTCACCTAGTGCAG”, 8730 fluorescence intensity (a.u.).
Take “TATCCTATCCCTAATTAGATTGGGCTTTTTTCTTTTGTTTCGGAGTCACCTAGTGCAG”: the binding signal was 11400 fluorescence intensity (a.u.).
“CCACTCTGCACTCTTCTCTCATCCAAAACCCCAATTTCCCCGGAGTCACCTAGTGCAG”: the binding signal is 9860 fluorescence intensity (a.u.).
Consider “ATGTTTGACACCGTTGATTTTTTAACACATGTTTGACCGTCGGAGTCACCTAGTGCAG”, for which the binding signal was 9910 fluorescence intensity (a.u.).
For the sequence “ATCGTTGCTGGTGCTTGGCATGTTTTCTTTTGCATCATTTCGGAGTCACCTAGTGCAG”, the binding signal was 10000 fluorescence intensity (a.u.).
Regarding “CCTCTTAACTAGTGGATTGATTCCCGGTCTCTTATTATCCCGGAGTCACCTAGTGCAG”, the binding signal is 8580 fluorescence intensity (a.u.).
